Results are given in words; binding and its absence hold for the method and conditions named. Binding seen in cells or lysates may run through a third protein. Some results given as binding are weak or reduced against the parent protein; the word gives no strength.
Biological target: GST-tagged Nipah virus V protein (NiV-V) (Nipah virus) (UniProt Q997F2)
Assay: pull-down

Chains of the proteins cited; added tags and fusions are not shown.
UniProt Q997F2: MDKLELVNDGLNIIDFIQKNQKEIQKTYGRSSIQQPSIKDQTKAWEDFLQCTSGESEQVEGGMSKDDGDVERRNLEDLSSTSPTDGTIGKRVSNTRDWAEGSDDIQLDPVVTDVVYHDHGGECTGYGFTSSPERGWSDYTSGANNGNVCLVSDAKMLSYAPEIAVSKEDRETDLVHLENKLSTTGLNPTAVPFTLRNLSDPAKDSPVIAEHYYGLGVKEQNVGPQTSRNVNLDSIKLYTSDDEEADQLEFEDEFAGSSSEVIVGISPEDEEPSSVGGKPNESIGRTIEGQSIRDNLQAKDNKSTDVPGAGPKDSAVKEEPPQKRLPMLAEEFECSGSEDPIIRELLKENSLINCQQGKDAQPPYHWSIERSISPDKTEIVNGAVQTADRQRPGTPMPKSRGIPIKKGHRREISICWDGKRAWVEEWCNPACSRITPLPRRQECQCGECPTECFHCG
UniProt P42224: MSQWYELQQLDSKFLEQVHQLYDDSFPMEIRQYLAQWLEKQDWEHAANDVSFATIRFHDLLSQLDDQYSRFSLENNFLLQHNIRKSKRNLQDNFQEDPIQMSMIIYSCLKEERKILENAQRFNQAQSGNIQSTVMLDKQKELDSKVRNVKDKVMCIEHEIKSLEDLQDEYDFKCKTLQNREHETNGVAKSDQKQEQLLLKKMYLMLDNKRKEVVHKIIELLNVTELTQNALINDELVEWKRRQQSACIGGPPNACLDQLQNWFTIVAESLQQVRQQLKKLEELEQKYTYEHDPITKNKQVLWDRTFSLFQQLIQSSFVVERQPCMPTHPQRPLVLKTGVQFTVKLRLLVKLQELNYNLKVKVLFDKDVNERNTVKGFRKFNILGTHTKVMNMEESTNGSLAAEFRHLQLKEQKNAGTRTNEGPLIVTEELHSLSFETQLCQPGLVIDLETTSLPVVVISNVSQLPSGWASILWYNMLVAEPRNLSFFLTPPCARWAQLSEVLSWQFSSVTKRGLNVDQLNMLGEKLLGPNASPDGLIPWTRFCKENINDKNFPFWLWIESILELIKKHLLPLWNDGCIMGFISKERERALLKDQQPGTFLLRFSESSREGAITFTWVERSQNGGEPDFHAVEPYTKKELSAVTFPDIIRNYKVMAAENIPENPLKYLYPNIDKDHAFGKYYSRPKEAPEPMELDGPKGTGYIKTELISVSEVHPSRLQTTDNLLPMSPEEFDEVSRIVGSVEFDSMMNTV

With “3xFLAG-tagged human STAT1 (from UniProt P42224 1-750)” the binding was “binds”.
